The results in this text go back to article PMC4824076, “Integrated microfluidic approach for quantitative high-throughput measurements of transcription factor binding affinities”.

What is called Kd is the free concentration of one partner at which half of the binding sites on the other are occupied at equilibrium, for simple one-to-one binding.

Tags and fusion partners may be left off the protein sequences shown. The exact form of at least one protein or probe is not confirmed.

The data set concerns the target T1, ATF1 (Homo sapiens) (UniProt P18846).
T1 sequence (looked up, limits assumed): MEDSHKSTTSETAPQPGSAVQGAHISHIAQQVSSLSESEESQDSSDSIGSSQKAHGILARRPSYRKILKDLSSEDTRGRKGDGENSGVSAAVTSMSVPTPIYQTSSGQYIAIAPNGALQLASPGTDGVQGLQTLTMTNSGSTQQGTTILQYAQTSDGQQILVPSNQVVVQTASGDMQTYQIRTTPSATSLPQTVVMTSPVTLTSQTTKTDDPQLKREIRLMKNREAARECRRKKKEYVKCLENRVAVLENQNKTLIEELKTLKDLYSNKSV
In words: binding assay. The conditions noted are these: MITOMI-type chip (QPID); rabbit reticulocyte lysate, 1 h; wash 50 mM HEPES; temperature not stated; DNA spotted at 0.0156-2 uM; protein translated in vitro; protein details: N-cMyc, C-His6 (kept); label: Cy5 on the primer strand.
Regarding “CGCAACGTGGGCTGACCGTGACGTCACAATGGCGCGGCCAGCTCCGGCGGTATGAC (double strand) [5.ATF1_CRE_2]”, the Kd was 0.0714 µM.

Sequence “CGCAAGCCCGCCTGCTTGCGTCACCGACGGACAGCACCCTCCGGCGGTATGAC (double strand) [68.ATF1_CRE_hs_20]” registered a Kd of 0.102 µM.

“CGCAAGGCTGTGGGATTGCGTCACAATGACTGCGGGATCTCCGGCGGTATGAC (double strand) [56.ATF1_CRE_hs_8]” showed a Kd of 0.166 µM.

As for “CGCAAGTTGTTCTGGCGGCGTCATTTCAGCAGTCCCTGCTCCGGCGGTATGAC (double strand) [48.ATF3_CRE_hs_34]”, the Kd amounted to 0.842 µM.

“CGCAATCTTATTGACATGCGTCAACGCGAGCTTGCGCTCTCCGGCGGTATGAC (double strand) [80.ATF1_CRE_hs_32]” had a Kd of 0.146 µM.

Sequence “CGCACAGCCTGAGCCCAGCGTCAGTCTCTTCCGACAGTCTCCGGCGGTATGAC (double strand) [119.Unbound_CRE_hs_3]” had a Kd of 1.74 µM.

In turn, “CGCACCCACCACATGACACGCCCACAGAACGCCCGCTCCTCCGGCGGTATGAC (double strand) [123.Unbound_non_CRE_2]” had a Kd of over 2 µM.

For the sequence “CGCACCCGAGGGGGGAAACGTCATTGCGGGTAGCAACCCTCCGGCGGTATGAC (double strand) [65.ATF1_CRE_hs_17]”, the Kd turned out to be 0.429 µM.

“CGCACCTGGACTCCAGAGCGTCACAGCTGCGCAATGAACTCCGGCGGTATGAC (double strand) [19.ATF3_CRE_hs_5]”: the Kd was 0.282 µM.

As to “CGCACGACCAGCGTGCTGCGTCACGGCGGTGCGCCGGACTCCGGCGGTATGAC (double strand) [112.ATF1_ATF3_CRE_hs_30]”, the dissociation constant Kd was 0.148 µM.

In turn, “CGCAGAAGCAGTCCAGGTCGTCAAAGTGCTCCATGTGCCTCCGGCGGTATGAC (double strand) [25.ATF3_CRE_hs_11]” showed a Kd of 0.617 µM.

With “CGCAGAGACAGCACTGTGCGTCATGTACCAGCGCCGGACTCCGGCGGTATGAC (double strand) [108.ATF1_ATF3_CRE_hs_26]”, the Kd was determined as 0.188 µM.

The sequence “CGCAGCAACGATCACCATCGTCACTTCTCCCTCTCTACCTCCGGCGGTATGAC (double strand) [54.ATF1_CRE_hs_6]” showed a Kd of 0.244 µM.

“CGCAGCACAGGCCCCGCCCGTCACGTGCAGCGCCCGAGCTCCGGCGGTATGAC (double strand) [34.ATF3_CRE_hs_20]”: the Kd is 0.212 µM.

The sequence “CGCAGGCGGCTCCGCCTGCGTCATCCATGATTTCATCACTCCGGCGGTATGAC (double strand) [76.ATF1_CRE_hs_28]” returned a Kd of 0.109 µM.

For “CGCAGTTGCGGCTTATTACGTCACAGTAATTGCTGTACCTCCGGCGGTATGAC (double strand) [57.ATF1_CRE_hs_9]”, the Kd came to 0.0625 µM.

The sequence “CGCCAACGAGTTCCAGTTCGTCAGCGGCCGCGAGACGGCTCCGGCGGTATGAC (double strand) [118.Unbound_CRE_hs_2]” returned a Kd of 0.842 µM.

Sequence “CGCCAAGGAGCGGGCTCTCGTCACTTCCGGCGCCCGCCCTCCGGCGGTATGAC (double strand) [107.ATF1_ATF3_CRE_hs_25]” gave an equilibrium dissociation constant (Kd) of 0.646 µM.

Take “CGCCAGCAGCACCGACCGCGTCAACCCCTCTGTGCTCACTCCGGCGGTATGAC (double strand) [117.Unbound_CRE_hs_1]”: the Kd was 0.239 µM.

Turning to “CGCCAGCAGCTGCCAGTGCGTCATCAGAGAGCGCCGGACTCCGGCGGTATGAC (double strand) [88.ATF1_ATF3_CRE_hs_6]”, the Kd amounted to 0.192 µM.

Sequence “CGCCAGCCCAGCCTCGGACGTCAACAATCCATGTTTCTCTCCGGCGGTATGAC (double strand) [121.Unbound_CRE_hs_5]” returned a Kd of 0.792 µM.

In turn, “CGCCCAATCAGAGCTCCTCGTCAGCATATGCAGAATTCCTCCGGCGGTATGAC (double strand) [62.ATF1_CRE_hs_14]” returned a Kd of 0.265 µM.

For “CGCCCAGTGCTGTGCGTCTGACGTCATTCTGCGGCGCTGGCCTCCGGCGGTATGAC (double strand) [7.ATF1_ATF3_CRE_1]”, the Kd is 0.124 µM.

In turn, “CGCCCCAATCCCGTCGAGCGTCAGGCGTGAGGCGGCGCCTCCGGCGGTATGAC (double strand) [91.ATF1_ATF3_CRE_hs_9]” came in with a Kd of 0.128 µM.

In turn, “CGCCCCAGCTACTGGCGACGTCACCGCACCGTAGGCTGCTCCGGCGGTATGAC (double strand) [73.ATF1_CRE_hs_25]” had a Kd of 0.142 µM.

For “CGCCCCATGAATGAACATTGACGTCAATGGGGCGGGGCGCGCTCCGGCGGTATGAC (double strand) [3.ATF3_CRE_3]”, the dissociation constant Kd is 0.255 µM.

For the sequence “CGCCCCCGATACGGCCGACGTCATTACCCTGCGACCGCCTCCGGCGGTATGAC (double strand) [111.ATF1_ATF3_CRE_hs_29]”, the Kd stood at 0.255 µM.

“CGCCCCGGGCGTCGCCTACGTCATAACACTGCGCGGCCCTCCGGCGGTATGAC (double strand) [109.ATF1_ATF3_CRE_hs_27]” returned a Kd of 0.115 µM.

“CGCCCCTAAAGCACGGGCTGACGTCATTTCAGCAATGTGCTCTCCGGCGGTATGAC (double strand) [11.Unbound_CRE_2]” showed a Kd of 0.109 µM.

In turn, “CGCCCGAGGGCGGCGTGTCGTCATCAAGCTGCGCGGGGCTCCGGCGGTATGAC (double strand) [95.ATF1_ATF3_CRE_hs_13]” had a Kd of 0.192 µM.

For the sequence “CGCCCGGCGCAGCGTGTGCGTCACCAGCGGGCGTCGAGCTCCGGCGGTATGAC (double strand) [93.ATF1_ATF3_CRE_hs_11]”, the Kd was 0.391 µM.

With “CGCCCGGGAGCGCGCCTACGTCACCGCGCAGACCTCGGCTCCGGCGGTATGAC (double strand) [24.ATF3_CRE_hs_10]”, the Kd was 0.143 µM.

As to “CGCCCTTCCGCGGGCGCCCGTCACGTGGGCGGGGTCACCTCCGGCGGTATGAC (double strand) [21.ATF3_CRE_hs_7]”, the Kd was 0.382 µM.

Sequence “CGCCGACCGAGACAGGTATGACGTCACTGGAGGTCGCCATTCTCCGGCGGTATGAC (double strand) [6.ATF1_CRE_3]” returned a Kd of 0.0516 µM.

The sequence “CGCCGAGAGGCTCACCCCTGACGTCACCCAGTCCCCAGGGCCTCCGGCGGTATGAC (double strand) [14.Unbound_CRE_5]” gave a Kd of 0.11 µM.

“CGCCGAGTGGCGCCGCCGTGACGTCACATGGGTGCGACGCGCTCCGGCGGTATGAC (double strand) [9.ATF1_ATF3_CRE_3]” displayed a Kd of 0.0326 µM.

With “CGCCGATTTCCGGGAACCCGTCAGGAAGGACATAAACACTCCGGCGGTATGAC (double strand) [23.ATF3_CRE_hs_9]”, the Kd amounted to 0.609 µM.

In the case of “CGCCGCCCCCTCTCCTGGCGTCAGCCTCTTCCGATTGGCTCCGGCGGTATGAC (double strand) [115.ATF1_ATF3_CRE_hs_33]”, the Kd is 0.526 µM.

For “CGCCGCGAAGAGGGCGCGCGTCATCAGATCAAGTCGACCTCCGGCGGTATGAC (double strand) [104.ATF1_ATF3_CRE_hs_22]”, the Kd was 0.121 µM.

On to “CGCCGCGAGCCAGAATGTCGTCACTCATCGGCGCCCGACTCCGGCGGTATGAC (double strand) [83.ATF1_ATF3_CRE_hs_1]”, for which the Kd turned out to be 0.264 µM.

Regarding “CGCCGCGCAACCGCGTTGCGTCACTTCTGCCGCCCCTGCTCCGGCGGTATGAC (double strand) [70.ATF1_CRE_hs_22]”, the Kd is 0.317 µM.

“CGCCGCGCGCGGTTATTACGTCACATCCTGGTTCCGCCCTCCGGCGGTATGAC (double strand) [45.ATF3_CRE_hs_31]”: the Kd turned out to be 0.121 µM.

As for “CGCCGCGCTACCGCATTACGTCAGCAGCCCGCGACGCGCTCCGGCGGTATGAC (double strand) [97.ATF1_ATF3_CRE_hs_15]”, the Kd amounted to 0.121 µM.

On to “CGCCGCTGCCTGTGGTAACGTCAGTGGTTGCTAGGCAGCTCCGGCGGTATGAC (double strand) [63.ATF1_CRE_hs_15]”, for which the Kd was over 2 µM.

With “CGCCGGCGCGCTTCCCTACGTCACTCGGAGCGCCGGCGCTCCGGCGGTATGAC (double strand) [105.ATF1_ATF3_CRE_hs_23]”, the Kd is 0.198 µM.

Take “CGCCGGCGCGGCGCGGCACGTCAGTGGCCTTCCGGCCGCTCCGGCGGTATGAC (double strand) [116.ATF1_ATF3_CRE_hs_34]”: the Kd came to 0.112 µM.

Consider “CGCCGGGCTCTGGCCGCACGTCATTCCCGGCGCGACGCCTCCGGCGGTATGAC (double strand) [44.ATF3_CRE_hs_30]”, for which the dissociation constant Kd is 0.327 µM.

The sequence “CGCCGGTGCTTCCGTGTGCGTCATCAGGAGGCGACCGTCTCCGGCGGTATGAC (double strand) [99.ATF1_ATF3_CRE_hs_17]” had a Kd of 0.362 µM.

In turn, “CGCCTCTCGGCTGGGGTTCGTCACTGGGCGCGGGATTTCTCCGGCGGTATGAC (double strand) [16.ATF3_CRE_hs_2]” displayed a Kd of over 2 µM.

The sequence “CGCCTGCAGCGTTCCTGGCGTCAGCCCCTATCCTCCAGCTCCGGCGGTATGAC (double strand) [28.ATF3_CRE_hs_14]” registered a Kd of over 2 µM.

As to “CGCCTGCGAAGGCTATCGCGTCATTCGATGGCTCCTCCCTCCGGCGGTATGAC (double strand) [64.ATF1_CRE_hs_16]”, the equilibrium dissociation constant (Kd) is 0.443 µM.

In turn, “CGCCTTACGTCTGCTGTGCGTCATCAGTCCGAGCCAAGCTCCGGCGGTATGAC (double strand) [71.ATF1_CRE_hs_23]” gave a Kd of 0.192 µM.

“CGCCTTGCCCTAATATTGCGTCATGAAGGCAGACCTACCTCCGGCGGTATGAC (double strand) [79.ATF1_CRE_hs_31]” gave an equilibrium dissociation constant (Kd) of 0.223 µM.

Regarding “CGCCTTTTGCCCACGTTACGTCATAGACATGCGCGCGACTCCGGCGGTATGAC (double strand) [59.ATF1_CRE_hs_11]”, the dissociation constant (Kd) turned out to be 0.0875 µM.

The sequence “CGCGACCTTAGCAGTTAGCGTCAACCTCCGCACTCTATCTCCGGCGGTATGAC (double strand) [72.ATF1_CRE_hs_24]” had a Kd of 0.109 µM.

Sequence “CGCGACGCCCTCGGGAGACGTCACCCGGACGCGACGACCTCCGGCGGTATGAC (double strand) [96.ATF1_ATF3_CRE_hs_14]” came in with a Kd of over 2 µM.
